Literature values, collected in US20220119523A1, “TREATMENT OF CUTANEOUS T CELL LYMPHOMA WITH TARGETING OF CD47 PATHWAY” (The Board of Trustees of the Leland Stanford Junior …, priority 2019, published 2022).
At least one compound was matched to its structure with a doubt left.

Tested on: Malignant cells isolated from a cohort of CTCL patients
Conditions: values 'as low as', sensitivity correlated with Bcl-2 expression, read-out: EC50 doses (cell viability); cited from earlier work

For `CC1(C)CCC(CN2CCN(c3ccc(C(=O)NS(=O)(=O)c4ccc(NCC5CCOCC5)c([N+](=O)[O-])c4)c(Oc4cnc5[nH]ccc5c4)c3)CC2)=C(c2ccc(Cl)cc2)C1` [venetoclax], the EC50 is listed as 1 to 3 nM.
